Test results as given in patent publication US6570002.
Results are given in words; binding and its absence hold for the method and conditions named. Binding seen in cells or lysates may run through a third protein. Some binding calls cover weakened binding; strength is not graded here. For part of these data: Where a sequence is shown, tags or fusion partners need not be part of it.

Chains of the proteins cited; added tags and fusions are not shown.
UniProt Q07817: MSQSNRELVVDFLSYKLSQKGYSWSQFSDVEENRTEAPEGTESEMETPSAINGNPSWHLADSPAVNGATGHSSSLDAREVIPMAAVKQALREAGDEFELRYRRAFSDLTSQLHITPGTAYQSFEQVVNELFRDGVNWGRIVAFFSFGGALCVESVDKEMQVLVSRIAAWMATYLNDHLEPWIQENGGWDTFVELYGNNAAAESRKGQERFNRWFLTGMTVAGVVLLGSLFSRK
UniProt O14727: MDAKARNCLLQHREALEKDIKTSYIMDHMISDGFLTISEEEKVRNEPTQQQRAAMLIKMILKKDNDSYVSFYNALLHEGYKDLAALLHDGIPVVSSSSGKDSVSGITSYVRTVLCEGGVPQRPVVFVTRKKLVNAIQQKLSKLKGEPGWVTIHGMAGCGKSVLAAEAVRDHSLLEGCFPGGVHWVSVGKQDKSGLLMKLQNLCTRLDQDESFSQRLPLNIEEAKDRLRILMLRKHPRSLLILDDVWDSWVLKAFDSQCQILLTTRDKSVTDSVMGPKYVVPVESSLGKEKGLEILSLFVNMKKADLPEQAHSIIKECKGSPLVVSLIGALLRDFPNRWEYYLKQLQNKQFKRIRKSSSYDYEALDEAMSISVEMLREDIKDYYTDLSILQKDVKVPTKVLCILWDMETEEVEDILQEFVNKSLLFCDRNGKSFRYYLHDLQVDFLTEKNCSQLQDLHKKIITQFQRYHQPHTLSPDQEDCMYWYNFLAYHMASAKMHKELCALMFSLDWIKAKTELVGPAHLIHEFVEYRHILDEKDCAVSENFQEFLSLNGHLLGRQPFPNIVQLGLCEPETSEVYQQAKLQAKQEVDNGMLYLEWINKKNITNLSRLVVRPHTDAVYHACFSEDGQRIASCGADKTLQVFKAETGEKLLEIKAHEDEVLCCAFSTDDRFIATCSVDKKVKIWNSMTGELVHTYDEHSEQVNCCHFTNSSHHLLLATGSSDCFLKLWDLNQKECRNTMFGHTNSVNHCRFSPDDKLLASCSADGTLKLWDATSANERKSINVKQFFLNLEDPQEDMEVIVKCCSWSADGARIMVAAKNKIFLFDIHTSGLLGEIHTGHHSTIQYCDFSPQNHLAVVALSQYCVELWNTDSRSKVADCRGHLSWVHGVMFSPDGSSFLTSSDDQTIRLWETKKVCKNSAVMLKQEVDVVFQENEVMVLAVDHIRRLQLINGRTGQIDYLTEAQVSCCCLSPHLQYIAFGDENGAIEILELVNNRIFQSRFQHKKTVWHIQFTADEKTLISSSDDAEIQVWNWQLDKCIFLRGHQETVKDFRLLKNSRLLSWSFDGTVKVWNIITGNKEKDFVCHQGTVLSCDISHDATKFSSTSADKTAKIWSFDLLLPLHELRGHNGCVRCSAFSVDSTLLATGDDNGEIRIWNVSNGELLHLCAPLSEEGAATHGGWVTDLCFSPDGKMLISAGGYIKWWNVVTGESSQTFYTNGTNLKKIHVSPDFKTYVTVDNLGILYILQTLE
UniProt P10415: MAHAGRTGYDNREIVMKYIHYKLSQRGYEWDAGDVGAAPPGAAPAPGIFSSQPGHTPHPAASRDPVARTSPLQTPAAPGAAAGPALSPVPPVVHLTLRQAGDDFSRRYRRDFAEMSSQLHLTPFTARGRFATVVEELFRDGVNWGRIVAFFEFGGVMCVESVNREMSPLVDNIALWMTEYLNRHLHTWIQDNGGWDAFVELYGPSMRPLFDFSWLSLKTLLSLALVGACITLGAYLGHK

Legend:
[1] = target: Bcl-xL (human) (UniProt Q07817); experiment: co-immunoprecipitation from COS-1 cells, HA-tagged Bcl-xL with Flag-tagged N-terminal deletion Aven (FIG. 8A)
[2] = target: HA epitope-tagged Apaf-1 (UniProt O14727); experiment: co-immunoprecipitation with anti-HA antibody (FIG. 9C)
[3] = target: Apaf-1 (UniProt O14727); experiment: co-immunoprecipitation from transfected cells (FIGS. 9F-J)
[4] = target: Apaf-1 (UniProt O14727); experiment: co-immunoprecipitation of endogenous proteins from HeLa cell lysates with anti-Aven-a serum (FIG. 9D)
[5] = target: Bcl-2 (UniProt P10415); experiment: co-immunoprecipitation from COS-1 cell lysates (FIG. 7B)
[6] = target: Bcl-2 (UniProt P10415); experiment: yeast two-hybrid and co-immunoprecipitation on COS-1 cell lysates (FIGS. 6, 7, 8)
[7] = target: Bcl-2 (UniProt P10415); experiment: yeast two-hybrid / co-immunoprecipitation from COS-1 cell lysates (FIG. 6)
[8] = target: Apaf-1 (UniProt O14727); experiment: co-immunoprecipitation (FIGS. 9A-E)
[9] = target: Apaf-1 (UniProt O14727); experiment: co-immunoprecipitation of endogenous proteins from 293T cell extracts with anti-Aven-b serum (FIG. 9E)
[10] = target: HA epitope-tagged Apaf-1 (UniProt O14727); experiment: co-immunoprecipitation with anti-Aven antibodies, immunoblot with anti-HA (FIG. 9B)
[11] = target: Apaf-1 (UniProt O14727); experiment: co-immunoprecipitation with anti-HA antibody from co-transfected COS-1 cells (FIG. 9A)

Measured: binding

B1: Flag epitope-tagged N-terminal deletion Aven (protein, not shown: small tags and cut ends)
chain: GSRREPGGWGAGASAPVEDDSDAETYGEENDEQGNYSKRKIVSNWDRYQDIEKEVNNESGESQRGTDFSVLLSSAGDSFSQFRFAEEKEWDSEASCPKQNSAFYVDSELLVRALQELPLCLRLNVAAELVQGTVPLEVPQVKPKRTDDGKGLGMQLKGPLGPGGRGPIFELKSVAAGCPVLLGKDNPSPGPSRDSQKPTSPLQSAGDHLEEELDLLLNLDAPIKEGDNILPDQTSQDLKSKEDGEVVQEEEVCAKPSVTEEKNMEPEQPSTSKNVTEEELEDWLDSMIS
binds: [1]

B2: Aven (protein)
chain: MQAERGARGGRGRRPGRGRPGGDRHSERPGAAAAVARGGGGGGGGDGGGRRGRGRGRGFRGARGGRGGGGAPRGSRREPGGWGAGASAPVEDDSDAETYGEENDEQGNYSKRKIVSNWDRYQDIEKEVNNESGESQRGTDFSVLLSSAGDSFSQFRFAEEKEWDSEASCPKQNSAFYVDSELLVRALQELPLCLRLNVAAELVQGTVPLEVPQVKPKRTDDGKGLGMQLKGPLGPGGRGPIFELKSVAAGCPVLLGKDNPSPGPSRDSQKPTSPLQSAGDHLEEELDLLLNLDAPIKEGDNILPDQTSQDLKSKEDGEVVQEEEVCAKPSVTEEKNMEPEQPSTSKNVTEEELEDWLDSMIS
not listed: [1] | [10] | [11]
binds: all other assays above

B3: HA epitope-tagged full length Aven (protein, not shown: small tags and cut ends)
chain: MQAERGARGGRGRRPGRGRPGGDRHSERPGAAAAVARGGGGGGGGDGGGRRGRGRGRGFRGARGGRGGGGAPRGSRREPGGWGAGASAPVEDDSDAETYGEENDEQGNYSKRKIVSNWDRYQDIEKEVNNESGESQRGTDFSVLLSSAGDSFSQFRFAEEKEWDSEASCPKQNSAFYVDSELLVRALQELPLCLRLNVAAELVQGTVPLEVPQVKPKRTDDGKGLGMQLKGPLGPGGRGPIFELKSVAAGCPVLLGKDNPSPGPSRDSQKPTSPLQSAGDHLEEELDLLLNLDAPIKEGDNILPDQTSQDLKSKEDGEVVQEEEVCAKPSVTEEKNMEPEQPSTSKNVTEEELEDWLDSMIS
binds: [10] | [11]

B4: HA-tagged ΔN73 Aven (protein, not shown: small tags and cut ends)
chain: GSRREPGGWGAGASAPVEDDSDAETYGEENDEQGNYSKRKIVSNWDRYQDIEKEVNNESGESQRGTDFSVLLSSAGDSFSQFRFAEEKEWDSEASCPKQNSAFYVDSELLVRALQELPLCLRLNVAAELVQGTVPLEVPQVKPKRTDDGKGLGMQLKGPLGPGGRGPIFELKSVAAGCPVLLGKDNPSPGPSRDSQKPTSPLQSAGDHLEEELDLLLNLDAPIKEGDNILPDQTSQDLKSKEDGEVVQEEEVCAKPSVTEEKNMEPEQPSTSKNVTEEELEDWLDSMIS
binds: [11]
